Among the data in publication PMC12823420 are binding values, retold here.

In the experiment the target is V5-flag-TurboID-tagged UAP56, wild type (human) (UniProt Q13838). Kind of experiment: co-IP; anti-flag M2 IP of V5-flag-TurboID-UAP56 from K562 nuclei, western blot.

Results are given in words; binding and its absence hold for the method and conditions named. In cells and extracts the contact can be indirect. Some entries that bind do so weakly or less than the wild type.

B1: endogenous SARNP (K562) (protein, UniProt P82979 1-210)
chain: MATETVELHKLKLAELKQECLARGLETKGIKQDLIHRLQAYLEEHAEEEANEEDVLGDETEEEETKPIELPVKEEEPPEKTVDVAAEKKVVKITSEIPQTERMQKRAERFNVPVSLESKKAARAARFGISSVPTKGLSSDNKPMVNLDKLKERAQRFGLNVSSISRKSEDDEKLKKRKERFGIVTSSAGTGTTEDTEAKKRKRAERFGIA
Turning to B1, the binding entry is listed as “binds”.
